# According to PubChem BioAssay AID651814 (National Center for Advancing Translational Sciences (NCATS), 2012):
# Sequences of proteins named here, by UniProt entry; tags and fusion partners are left off. A change or cut given only in a name is not applied to a line headed by its entry.
# UniProt Q8IUX4: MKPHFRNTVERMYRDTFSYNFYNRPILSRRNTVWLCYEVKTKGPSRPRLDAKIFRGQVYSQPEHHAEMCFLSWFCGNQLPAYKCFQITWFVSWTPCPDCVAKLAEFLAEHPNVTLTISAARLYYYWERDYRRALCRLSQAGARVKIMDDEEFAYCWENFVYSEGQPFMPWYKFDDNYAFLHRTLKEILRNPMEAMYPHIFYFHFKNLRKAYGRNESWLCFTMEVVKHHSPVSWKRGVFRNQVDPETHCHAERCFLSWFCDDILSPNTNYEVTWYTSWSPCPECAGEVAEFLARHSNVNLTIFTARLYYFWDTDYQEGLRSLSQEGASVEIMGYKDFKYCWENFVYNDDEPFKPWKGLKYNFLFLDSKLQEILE
# Among all 2,100 compounds or so, about 590 (28%) were called active. The inconclusive results got no clear call from the source; some entries with a clear call stand among them for comparison. Calls follow the shape of the dose curve; as a rule, active = well fitted inhibition curve with a large enough effect; inconclusive = small, poorly fitted or top-dose-only effect; inactive = flat fitted curve, though single readings scatter. Potencies beside an inconclusive call are fits to weak or partial responses and may not hold up.
# Target: DNA dC->dU-editing enzyme APOBEC-3F (Homo sapiens) (UniProt Q8IUX4)
# Assay: qHTS for inhibitors of Vif-A3F interactions: Cherry picks; also: nearly all actives have a fitted effect of over 70% in size;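 as to max response: % of control where 0% means no effect; active compounds raise eYFP fluorescence by blocking Vif-driven A3F loss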
# Conditions: HeLa A3F-eYFP + Vif (tagged APOBEC3F with the HIV-1 protein that degrades it), eYFP fluorescence, 24 h
# Procedure, shortened: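 HeLa cells stably expressing A3F-eYFP plus Vif, cultured overnight, then exposed to compounds at several concentrations for 24 h at 37 deg C. Reduced Vif-driven degradation read as rising eYFP fluorescence (488 nm ex/500-530 nm em) by laser-scanning cytometry; MG132 as positive control.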
# Potency is read from the fitted curve at half-maximal effect.
Structure (SMILES),Potency,max response
COc1cc(-c2cnc3c(NC(C)=O)cc(-c4ccccc4CN(C)C)cn23)cc(OC)c1OC,"inconclusive: 12.5 µM [inhibitor, partial curve]",
Cc1ccc(Nc2nc(-c3cccnc3)nc3ccccc23)cc1,,inactive: -12.4%
CCN(CC)C(=O)c1sc2nc(-c3cccs3)cc(-c3ccc(Cl)cc3)c2c1N,active: 15.8 µM,
O=C(O)c1ccccc1N/N=C/c1c(Sc2nnnn2-c2ccccc2)nc2ccccn2c1=O,active: 9.94 µM,
Cc1ccc(C(=O)c2cc([N+](=O)[O-])ccc2N2CCN(C)CC2)cc1,"inconclusive: 3.53 µM [inhibitor, full curve]",
O=C(N/N=C/c1ccsc1)c1cc(-c2cccs2)nc2ccccc12,"inconclusive: 14 µM [inhibitor, partial curve]",
O=C(NCc1cccc(F)c1)c1cccc2c1C(=O)c1ccc(N3CCCC3)cc1S2(=O)=O,active: 14 µM,
O=C1CSC(=S)N1Cc1cccnc1,"inconclusive: 3.66 µM [inhibitor, full curve]",
CCOC(=O)C1=C(Cc2ccc(F)cc2)C(=O)c2ccccc2C1=O,"inconclusive: 25.9 µM [inhibitor, single point]",
Cc1ccc(-c2cc(C(=O)N/N=C/c3c[nH]c4ccccc34)[nH]n2)cc1,"inconclusive: 4.44 µM [inhibitor, full curve]",
COc1ccc(CCNC(=O)CC2(CC3=NS(=O)(=O)c4ccccc4N3)CCCC2)cc1OC,,inactive: -0.97%
O=C(NCc1cc(C(F)(F)F)ccc1Cl)c1cccc2c1C(=O)c1ccc(N3CCC(Cc4ccccc4)CC3)cc1S2(=O)=O,"inconclusive: 17.7 µM [inhibitor, single point]",
COc1ccc(-c2cc(C(F)F)n3ncc(C(=O)N4CCc5ccccc54)c3n2)cc1,"inconclusive: 1.58 µM [inhibitor, full curve]",
COc1cc(CCC(=O)Nc2nnc(C)s2)cc(OC)c1OC,"inconclusive: 5.59 µM [inhibitor, partial curve]",
COCCNC(=S)N/N=C(\C)c1ccc(OC(F)F)cc1,,inactive: 0.658%
COc1ccccc1C=CC(=O)C=Cc1ccccc1OC,"inconclusive: 3.14 µM [inhibitor, full curve]",
O=C(N/N=C/c1ccc2c(c1)OCO2)c1cccc2ccccc12,"inconclusive: 3.96 µM [inhibitor, full curve, poor fit]",
Cc1ccc2[nH]c(C(=O)NN=C3CCCCC3)c(-c3ccccc3)c2c1,,inactive: 0.516%
C[C@@H]1O[C@@H](O[C@@H]2C(=O)c3c(O)cc(O)cc3O[C@H]2c2ccc(O)c(O)c2)[C@H](O)[C@H](O)[C@H]1O,,inactive: 2.1%
Cc1cccc(OCCOc2ccccc2C=C(C#N)C#N)c1,,inactive: -24.6%
COc1cc(C(=O)NCC(=O)N2CCN(S(=O)(=O)c3cc(C)ccc3C)CC2)cc(OC)c1OC,"inconclusive: 4.44 µM [inhibitor, full curve]",
N#C/C(=C/c1ccc(N2CCCCC2)o1)c1cccc(F)c1,active: 5.17 µM,
CC(=O)c1sc(N/N=C\c2c(O)ccc3ccccc23)nc1C,"inconclusive: 19.8 µM [inhibitor, single point]",

Structure (SMILES),Potency,max response
COc1ccc(S(=O)(=O)Nc2cc(Sc3ncn[nH]3)c(O)c3ccccc23)cc1,,inactive: -14.9%
OCCCn1c(C2CCCN2c2nc(-c3ccc(F)cc3)cs2)nc2cc(Cl)c(N3CCCCC3)cc21 (configuration not stated),"inconclusive: 18.4 µM [inhibitor, single point]",
CCOC(=O)c1ccc(NC(=O)CSc2nc(-c3ccc(OC)cc3)cc(C(F)(F)F)c2C#N)cc1,active: 18.4 µM,
COc1ccc(/C=N\NC(=O)c2cc3c(ccc4ccccc43)o2)cc1O,"inconclusive: 14 µM [inhibitor, single point]",
COc1ccc(Nc2nc(C)nc3sc4c(c23)CCC4)cc1O,,inactive: -29.4%
Cn1cc(/C=C2\SC(=S)N(NC(=O)c3cccc(Cl)c3)C2=O)c2ccccc21,"inconclusive: 5.8 µM [inhibitor, partial curve]",
C[C@H](O)[C@@H]1CN2CCc3c([nH]c4ccccc34)[C@@H]2C[C@@H]1N(C)C(=O)c1ccco1,"inconclusive: 14 µM [inhibitor, single point]",
N#CC1=C(N)Oc2cc(N)ccc2C1c1ccccc1 (configuration not stated),"inconclusive: 14 µM [inhibitor, single point]",
O=c1[nH]c(CN2CCN(c3ccccc3)CC2)nc2scc(-c3ccccc3)c12,"inconclusive: 2.59 µM [inhibitor, full curve, poor fit]",
COc1ccc(Nc2nc3cc(C)ccc3cc2C#N)cc1,"inconclusive: 18.4 µM [inhibitor, single point]",
COc1ccc(-c2nc3cnccn3c2NC2CCCCC2)cc1-c1cccc(Cl)c1,,inactive: -28.6%
COc1cc(C(=O)Nc2ccc(C)cc2)c2ccccc2n1,"inconclusive: 1.98 µM [inhibitor, full curve]",
COc1cccc(OCc2nc3ncc(Br)cc3[nH]2)c1,"inconclusive: 1.4 µM [inhibitor, full curve]",
CC[n+]1c(/C=C/Nc2ccccc2)oc2ccccc21,active: 7.31 µM,
CC(C)=CCn1c2ccc(NC(=O)NCc3ccc(F)cc3)cc2c(=O)n1C,"inconclusive: 3.14 µM [inhibitor, full curve]",
Cc1cc(/C=C2\SC(=S)N(C)C2=O)c(C)n1-c1ccc(O)cc1,"inconclusive: 18.4 µM [inhibitor, single point]",
Cc1ccc(NC(=O)CO/N=C/c2ccc(N(C)C)cc2)cc1,"inconclusive: 18.4 µM [inhibitor, single point]",
CCOc1ccc(S(=O)(=O)Nc2cc3c(C(=O)OC)c(COC)oc3c3ccccc23)cc1,"inconclusive: 1.3 µM [inhibitor, partial curve]",
CN(C)c1ccc(/C=C/c2cnnc3ccccc23)cc1,active: 20.6 µM,
COc1ccc(NC(=O)/C(C#N)=C/C=C/c2ccco2)cc1,,inactive: -30%
O=C1S/C(=C/c2ccc(N3CCOCC3)o2)C(=O)N1Cc1ccc(F)cc1,active: 2.8 µM,
COc1ccc(NC(=O)c2oc3ccc(S(=O)(=O)N4CCOCC4)cc3c2C)cc1,,inactive: -0.455%
O=C(NC1CCCCC1)c1cccc2c1C(=O)c1ccc(N3CCC(Cc4ccccc4)CC3)cc1S2(=O)=O,active: 12.5 µM,

Structure (SMILES),Potency,max response
CCOC(=O)c1c(Nc2ccc(Cl)cc2)sc(/C=C2\C=Nc3ccccc32)c1O,active: 14.6 µM,
CC(C)(C)c1ccc(-c2csc(NC(=O)CN3C(=O)NC4(CCCCC4)C3=O)n2)cc1,"inconclusive: 18.4 µM [inhibitor, single point]",
O=S(=O)(N=C1C=CC(=NS(=O)(=O)c2ccccc2)c2ccccc21)c1ccccc1,,inactive: -24.1%
CN(C)c1ccc(/C=N/N(CCO)C2=NS(=O)(=O)c3ccccc32)cc1,"inconclusive: 29.1 µM [inhibitor, single point]",
CC(=O)c1cccc(-c2ccnc3c2CC(C(=O)NCC2CCOCC2)O3)c1 (configuration not stated),"inconclusive: 3.53 µM [inhibitor, partial curve]",
COc1ccc(N=Cc2c(O)n(-c3ccc(OC)cc3)c(=O)c3ccccc23)cc1,"inconclusive: 23.1 µM [inhibitor, partial curve]",
COc1ccc(-n2c(O)c(/C=N/NS(=O)(=O)c3ccc(C)cc3)c3ccccc3c2=O)cc1OC,"inconclusive: 23.1 µM [inhibitor, single point]",
COc1ccc(Cn2c(=O)cc(N)n(-c3ccccc3C)c2=O)cc1,"inconclusive: 9.94 µM [inhibitor, partial curve]",
O=C(NC(=S)N1CCN(C2CCCCC2)CC1)c1ccccc1,,inactive: 3.13%
Cc1onc(-c2c(F)cccc2Cl)c1C(=O)O/N=C(\N)c1ccc([N+](=O)[O-])o1,,inactive: -3.32%
COC(=O)[C@@]1(Cc2ccccc2)[C@@H]2C(=CC(=O)[C@H]2CC(=O)C(=O)N(C)C)CN1C(=O)c1ccccc1,,inactive: -26.2%
O=C(N/N=C/c1ccco1)c1cc(-c2ccncc2)nc2ccccc12,"inconclusive: 11.2 µM [inhibitor, partial curve]",
Cc1nn(Cc2c(Cl)cccc2Cl)c(C)c1NC(=O)c1cc(C(C)C)on1,"inconclusive: 29.1 µM [inhibitor, single point]",
COC(=O)c1ccc(Nc2c([N+](=O)[O-])ccc3nonc23)cc1,"inconclusive: 20.6 µM [inhibitor, single point]",
O=C(N/N=C/c1ccc([N+](=O)[O-])o1)c1cc(-c2ccc(-c3ccccc3)cc2)nc2ccccc12,"inconclusive: 7.04 µM [inhibitor, partial curve]",
COc1ccc(N(C)S(=O)(=O)c2cccc3cccnc23)c(OC)c1,"inconclusive: 5.59 µM [inhibitor, partial curve]",
CC(C)(C)c1ccc(OCC(=O)Nc2ccc3c4c(cccc24)C(=O)NC3=O)cc1,,inactive: 5.82%
CC(/C=C/c1ccc(N(C)C)cc1)=N\N=C(/N)SC1CC(=O)N(c2ccc(C(=O)O)cc2)C1=O (configuration not stated),,inactive: -20.3%
CC[n+]1ccccc1/C=C1\Sc2ccc(C)cc2N1C,active: 23.1 µM,
CC(=O)Nc1ccc(C2=CC(=O)C[C@H](c3ccc(Cl)cc3)C2)cc1,"inconclusive: 20.6 µM [inhibitor, single point]",
COc1cccc(Nc2nc(Nc3ccc(Cl)c(C(=O)O)c3)nc(C)c2[N+](=O)[O-])c1,,inactive: -16.3%

# Random excerpt: 6 records from the list.
Structure (SMILES),Potency,max response
COC(=O)[C@@]1(Cc2ccccc2)[C@@H]2C(=CC(=O)[C@H]2CC(=O)C(=O)N(C)C)CN1C(=O)c1ccccc1,,inactive: -26.2%
COc1ccc(Cn2c(=O)cc(N)n(-c3ccccc3C)c2=O)cc1,"inconclusive: 9.94 µM [inhibitor, partial curve]",
CC[n+]1ccccc1/C=C1\Sc2ccc(C)cc2N1C,active: 23.1 µM,
Cc1onc(-c2c(F)cccc2Cl)c1C(=O)O/N=C(\N)c1ccc([N+](=O)[O-])o1,,inactive: -3.32%
O=C(N/N=C/c1ccc([N+](=O)[O-])o1)c1cc(-c2ccc(-c3ccccc3)cc2)nc2ccccc12,"inconclusive: 7.04 µM [inhibitor, partial curve]",
COc1ccc(-n2c(O)c(/C=N/NS(=O)(=O)c3ccc(C)cc3)c3ccccc3c2=O)cc1OC,"inconclusive: 23.1 µM [inhibitor, single point]",
